Data source: PubChem BioAssay AID1508597 (Cure First, 2020)

- Assay: 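Survival screen with siRNA in ovarian cancer cells derived from patients, with or without rucaparib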 (primary screen)
- System: human ovarian carcinoma lines grown from tumours: OCI-P5x (papillary serous) and OCI-C5x (clear cell)
- Knock-down reagent: siRNA pool against human genes, 1.25 pmol siRNA per well
- Time to read-out: 72 h or 96 h, depending on the cell culture
- Treatment: rucaparib 20 µM (about IC30) or vehicle, present until read-out
- Rucaparib or vehicle: Rucaparib
- Cell line: OCI-P5x (serous)
- Measurement: 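Luminescent ATP-based viability assay read 72 or 96 h after transfection, depending on culture, given as normalised percent viability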
- Direction: viability, normalised: higher = more viable cells remaining
- Rule for the call: 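Active when normalised viability falls below 80 percent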
- Calls: active = viability under 80%; inactive = viability 80% or more
This is a random part of the about 2,100 reagents, in one setting of the screen. 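Calls flag viability under 80% in either arm, not effects specific to rucaparib; the reference for percent is not stated.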 A reagent listed more than once was tested more than once; the source does not tell the runs apart. The record does not give: the 100% reference.

no.	gene symbol	technical replicate	viability, normalised (%)	activity call
1	MAP3K2	1	85.4	inactive
2	MAP3K2	2	101	inactive
3	MAP3K2	3	98	inactive
4	BNIP2	1	68.7	active
5	BNIP2	2	67.9	active
6	BNIP2	3	79.7	active
7	BCL6	1	60.5	active
8	BCL6	2	66.4	active
9	BCL6	3	68.7	active

Records above marked active:
gene symbol	technical replicate	viability, normalised (%)	activity call
BNIP2	1	68.7	active
BNIP2	2	67.9	active
BNIP2	3	79.7	active
BCL6	1	60.5	active
BCL6	2	66.4	active
BCL6	3	68.7	active

More results:
no.	gene symbol	technical replicate	viability, normalised (%)	activity call
10	CSNK2A1	1	146	inactive
11	CSNK2A1	1	59.2	active
12	CSNK2A1	2	115	inactive
13	CSNK2A1	2	70.5	active
14	CSNK2A1	3	58.2	active
15	CSNK2A1	3	124	inactive
16	GUCY2C	1	77.1	active
17	GUCY2C	2	65.4	active
18	GUCY2C	3	70.4	active
19	KSR1	1	60.4	active
20	KSR1	2	95.3	inactive
21	KSR1	3	92	inactive
22	STK11	1	116	inactive
23	STK11	2	95.8	inactive
24	STK11	3	81.2	inactive
